Assay results published in publication doi:10.1101/2025.11.10.687607.

Amino acid sequences for entries named in this document (tags omitted). A change or cut given only in a name is not applied to a line headed by its entry.
UniProt Q8IE50: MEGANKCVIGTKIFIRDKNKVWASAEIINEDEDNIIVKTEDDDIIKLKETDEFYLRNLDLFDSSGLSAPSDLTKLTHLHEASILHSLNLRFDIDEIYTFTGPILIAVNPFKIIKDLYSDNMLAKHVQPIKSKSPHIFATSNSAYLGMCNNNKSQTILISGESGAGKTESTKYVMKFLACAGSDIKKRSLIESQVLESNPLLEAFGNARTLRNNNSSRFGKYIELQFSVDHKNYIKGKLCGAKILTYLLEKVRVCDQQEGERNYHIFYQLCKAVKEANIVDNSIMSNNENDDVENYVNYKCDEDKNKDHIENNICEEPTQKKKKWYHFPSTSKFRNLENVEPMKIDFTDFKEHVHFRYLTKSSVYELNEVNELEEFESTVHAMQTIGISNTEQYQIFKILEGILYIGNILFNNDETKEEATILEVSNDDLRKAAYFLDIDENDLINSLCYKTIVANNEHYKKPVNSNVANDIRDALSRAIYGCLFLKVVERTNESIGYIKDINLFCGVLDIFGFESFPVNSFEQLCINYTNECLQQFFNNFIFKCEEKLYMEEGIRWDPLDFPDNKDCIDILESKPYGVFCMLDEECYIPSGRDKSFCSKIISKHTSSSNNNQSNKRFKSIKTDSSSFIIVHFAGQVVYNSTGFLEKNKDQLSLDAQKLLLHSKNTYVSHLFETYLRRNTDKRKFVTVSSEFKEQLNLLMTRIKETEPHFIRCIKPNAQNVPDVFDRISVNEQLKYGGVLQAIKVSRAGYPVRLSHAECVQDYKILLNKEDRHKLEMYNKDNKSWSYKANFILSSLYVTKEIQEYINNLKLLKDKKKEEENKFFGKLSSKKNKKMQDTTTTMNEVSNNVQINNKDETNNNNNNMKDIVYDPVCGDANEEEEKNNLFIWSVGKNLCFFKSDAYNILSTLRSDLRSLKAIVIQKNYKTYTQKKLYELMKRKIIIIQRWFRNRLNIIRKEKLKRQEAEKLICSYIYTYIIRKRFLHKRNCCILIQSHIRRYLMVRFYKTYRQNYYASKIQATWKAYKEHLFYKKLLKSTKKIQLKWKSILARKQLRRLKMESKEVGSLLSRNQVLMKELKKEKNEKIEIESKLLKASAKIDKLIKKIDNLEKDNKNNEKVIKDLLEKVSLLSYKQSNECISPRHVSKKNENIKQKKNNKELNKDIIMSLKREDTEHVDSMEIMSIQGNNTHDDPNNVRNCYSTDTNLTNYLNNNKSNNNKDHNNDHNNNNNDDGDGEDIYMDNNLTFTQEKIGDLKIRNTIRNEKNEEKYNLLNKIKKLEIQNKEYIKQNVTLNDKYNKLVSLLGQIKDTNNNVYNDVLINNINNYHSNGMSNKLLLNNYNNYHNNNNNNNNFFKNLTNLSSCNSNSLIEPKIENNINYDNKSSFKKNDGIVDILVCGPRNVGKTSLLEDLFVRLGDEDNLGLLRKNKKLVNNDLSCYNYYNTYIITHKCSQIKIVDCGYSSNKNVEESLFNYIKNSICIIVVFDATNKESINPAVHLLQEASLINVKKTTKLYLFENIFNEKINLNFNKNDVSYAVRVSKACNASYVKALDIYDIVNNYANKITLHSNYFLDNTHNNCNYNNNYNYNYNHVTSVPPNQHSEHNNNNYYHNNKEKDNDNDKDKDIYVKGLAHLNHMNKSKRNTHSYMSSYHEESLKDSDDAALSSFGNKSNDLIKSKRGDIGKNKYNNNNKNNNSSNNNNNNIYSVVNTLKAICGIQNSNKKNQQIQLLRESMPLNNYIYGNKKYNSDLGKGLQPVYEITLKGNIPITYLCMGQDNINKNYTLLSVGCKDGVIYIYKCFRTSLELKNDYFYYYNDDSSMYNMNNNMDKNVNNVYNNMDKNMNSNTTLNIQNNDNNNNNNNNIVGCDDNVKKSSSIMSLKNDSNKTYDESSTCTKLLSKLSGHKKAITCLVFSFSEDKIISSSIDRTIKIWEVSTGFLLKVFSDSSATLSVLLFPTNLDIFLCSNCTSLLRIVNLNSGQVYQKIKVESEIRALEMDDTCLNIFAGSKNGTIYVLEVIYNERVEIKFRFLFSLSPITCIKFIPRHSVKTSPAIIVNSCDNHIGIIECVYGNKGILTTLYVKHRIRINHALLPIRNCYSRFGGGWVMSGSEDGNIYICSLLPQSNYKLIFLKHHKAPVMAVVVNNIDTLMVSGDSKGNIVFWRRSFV
UniProt C6KT34: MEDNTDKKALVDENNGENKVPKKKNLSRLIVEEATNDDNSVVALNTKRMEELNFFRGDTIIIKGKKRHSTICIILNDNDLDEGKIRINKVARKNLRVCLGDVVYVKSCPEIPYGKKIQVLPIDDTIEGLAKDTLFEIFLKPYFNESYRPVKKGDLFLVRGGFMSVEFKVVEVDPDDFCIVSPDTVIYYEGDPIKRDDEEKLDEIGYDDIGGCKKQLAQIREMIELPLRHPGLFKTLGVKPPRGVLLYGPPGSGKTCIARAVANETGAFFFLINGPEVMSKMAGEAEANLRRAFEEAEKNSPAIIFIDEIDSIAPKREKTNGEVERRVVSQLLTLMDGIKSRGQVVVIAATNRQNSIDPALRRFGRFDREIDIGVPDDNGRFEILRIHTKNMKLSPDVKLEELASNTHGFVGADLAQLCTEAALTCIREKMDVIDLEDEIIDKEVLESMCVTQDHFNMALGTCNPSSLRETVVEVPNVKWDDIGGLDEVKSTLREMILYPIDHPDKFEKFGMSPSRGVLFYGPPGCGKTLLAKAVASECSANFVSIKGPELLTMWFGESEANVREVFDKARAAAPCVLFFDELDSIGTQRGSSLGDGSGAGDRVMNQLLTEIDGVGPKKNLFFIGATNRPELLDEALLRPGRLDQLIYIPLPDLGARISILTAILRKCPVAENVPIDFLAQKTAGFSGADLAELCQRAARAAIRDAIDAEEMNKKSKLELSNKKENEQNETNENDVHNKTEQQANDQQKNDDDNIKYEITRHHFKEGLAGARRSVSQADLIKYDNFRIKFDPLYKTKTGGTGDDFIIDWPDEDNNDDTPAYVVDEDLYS

Target: endogenous PfMyoF (Plasmodium falciparum 3D7 (endogenous in parasite lysate)) (UniProt Q8IE50)
Assay: affinity purification with mass spectrometry

Row | Molecule | binding
1 | PF3D7_0619400 (from UniProt C6KT34) | binds
2 | PfRab18 (protein, UniProt Q8T324 1-201) MKNKNKYDYLLKLLLVGDSSVGKSSILCRYSDNQFEEKVLSTIGIDFKVKYLKIDNKTIKVGIWDTAGQERFRTLTSAYYRNAHAIILVYDCTVRESFENLDVWINEIDKYSTNKNAIKMLVANKIDKPNHEVTKDEGKNFAFENNMLFCETSAKNDINITYCFEELIQQILNNPSLLELSIVTKNLKLGKKEESRSNCAC | binds

No constants are given. Whether binding was seen depends on the method and setting. In cells and extracts the contact can be indirect. A yes stands for co-enrichment or nearness to the bait. Other partners may have been found.
